Publication PMC1514790, “Tomosyn Inhibits Synaptic Vesicle Priming in Caenorhabditis elegans” (PLoS Biology, 2006)
No constants are given. Whether binding was seen depends on the method and setting. Some results given as binding are weak or reduced against the parent protein; the word gives no strength. Tags and fused reporters may be left off the sequences shown. Values belong to the molecule of their own block, whether it stands above or below them.

The chains behind the UniProt entries cited, without tags or fusion partners.
UniProt P60881: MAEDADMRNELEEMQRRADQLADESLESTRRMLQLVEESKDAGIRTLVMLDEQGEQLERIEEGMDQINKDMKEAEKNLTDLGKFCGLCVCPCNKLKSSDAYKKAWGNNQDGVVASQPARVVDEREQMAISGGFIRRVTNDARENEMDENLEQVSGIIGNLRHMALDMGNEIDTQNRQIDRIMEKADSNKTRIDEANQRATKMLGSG

Columns and labels:
[1] = biological target: T1, C. elegans syntaxin-GST (UNC-64 cytoplasmic domain, aa 1-266) (C. elegans) (UniProt O16000); assay: pull-down; binary: C. elegans GST syntaxin incubated with either rat SNAP-25 or TOM-1Ct alone, collected on glutathione agarose, washed; Coomassie Blue staining of supernatant and beads; both purified
T1 sequence: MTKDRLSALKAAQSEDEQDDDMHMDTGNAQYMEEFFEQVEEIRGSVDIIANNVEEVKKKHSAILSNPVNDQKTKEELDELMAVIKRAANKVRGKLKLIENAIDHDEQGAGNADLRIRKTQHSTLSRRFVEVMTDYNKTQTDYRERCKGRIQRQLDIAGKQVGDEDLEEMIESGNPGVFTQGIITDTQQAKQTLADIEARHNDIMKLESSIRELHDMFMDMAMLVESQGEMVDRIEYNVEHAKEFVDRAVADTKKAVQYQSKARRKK

[2] = biological target: T1, C. elegans syntaxin-GST (UNC-64 cytoplasmic domain, aa 1-266) (C. elegans); assay: pull-down; ~1.6 uM each of C. elegans syntaxin-GST, rat SNAP-25-His6 and His6-TOM-1Ct or His6-SNB-1, 2 h to overnight at 4 °C in D-buffer, isolated on glutathione agarose; Coomassie Blue staining, densitometry; both purified
[3] = biological target: T1, C. elegans syntaxin-GST (UNC-64 cytoplasmic domain, aa 1-266) (C. elegans); assay: pull-down; C. elegans syntaxin-GST incubated with C. elegans SNAP-25-His6 and His6T7-TOM-1Ct or His6T7-SNB-1, isolated on glutathione agarose; 4 °C, D-buffer (10 mM HEPES pH 7.9, 140 mM KCl, 0.5% Triton X-100, 0.1 mM PMSF); immunoblot with anti-GST, anti-His6, anti-T7; both purified

- binding [1]: binds
- binding [2]: binds
Molecule: Rat SNAP-25-His6 (from UniProt P60881 1-206)

- binding [3]: binds weakly
B1: C. elegans synaptobrevin SNB-1 cytoplasmic domain (aa 1-88), His6T7-tagged (domain or fragment, UniProt O02495 1-88, looked up)
chain: MDAQGDAGAQGGSQGGPRPSNKRLQQTQAQVDEVVGIMKVNVEKVLERDQKLSQLDDRADALQEGASQFEKSAATLKRKYWWKNIKMM
notes: C. elegans synaptobrevin (SNB-1), cytoplasmic domain aa 1-88, lacking the TM domain, cloned into pRSETC; also called His6T7-tagged SNB-1; His6-SNB-1; source: recombinant, purified (Ni-NTA agarose)

- binding [3]: binds weakly
B2: C. elegans SNAP-25-His6 (RIC-4) (protein, UniProt O62414 1-207)
chain: MSGDDDIPEGLEAINLKMNATTDDSLESTRRMLALCEESKEAGIKTLVMLDDQGEQLERCEGALDTINQDMKEAEDHLKGMEKCCGLCVLPWNKTDDFEKTEFAKAWKKDDDGGVISDQPRITVGDSSMGPQGGYITKITNDAREDEMDENVQQVSTMVGNLRNMAIDMSTEVSNQNRQLDRIHDKAQSNEVRVESANKRAKNLITK
